Where a chain is given by its changes, count along the chain named. No constants are given. Whether binding was seen depends on the method and setting. Some entries that bind do so weakly or less than the wild type. Sequences can lack the tags named with a protein.

Assay [1] has as its target T1, Schizosaccharomyces pombe U2AF1 (U2AF small subunit), wild type (Schizosaccharomyces pombe) (UniProt Q09176).
T1 sequence: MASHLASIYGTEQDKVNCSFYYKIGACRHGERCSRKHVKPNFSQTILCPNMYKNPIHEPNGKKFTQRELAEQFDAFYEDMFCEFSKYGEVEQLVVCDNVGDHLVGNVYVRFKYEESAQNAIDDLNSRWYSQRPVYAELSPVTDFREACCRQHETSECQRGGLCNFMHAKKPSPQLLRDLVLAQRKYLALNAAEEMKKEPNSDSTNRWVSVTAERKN
The experiment in a line: crystal structure; U2AF1 complex (U2AF1 with U2AF2 93-161) co-crystallised with 3' splice site RNA (1:1.5); hanging-drop vapor diffusion, 10% PEG35000, 0.1 M sodium citrate pH 6.0, 4 or 20 °C; nine copies in the asymmetric unit; both purified.

The target of assay [2] is T2, Schizosaccharomyces pombe U2AF1 S34Y mutant (Schizosaccharomyces pombe) (UniProt Q09176).
T2 sequence: T1 sequence with S34Y
The assay is described as above.

B1: Schizosaccharomyces pombe U2AF2 short fragment (residues 93-161) (domain or fragment, UniProt P36629 93-161)
chain: SSVGRSRSPPPSRERSVRSIEQELEQLRDVTPINQWKRKRSLWDIKPPGYELVTADQAKMSGVFPLPGA
For the molecule B1, the binding result in assay [1] and in assay [2] was “binds” throughout.

The record behind these values is publication PMC7505975.
